The record followed here is paper PMC3288053 (PLoS ONE, 2012).

By UniProt entry, the sequences of proteins in these tests, tags left out. Residues count along the entry.
UniProt P19793, residues 229-458: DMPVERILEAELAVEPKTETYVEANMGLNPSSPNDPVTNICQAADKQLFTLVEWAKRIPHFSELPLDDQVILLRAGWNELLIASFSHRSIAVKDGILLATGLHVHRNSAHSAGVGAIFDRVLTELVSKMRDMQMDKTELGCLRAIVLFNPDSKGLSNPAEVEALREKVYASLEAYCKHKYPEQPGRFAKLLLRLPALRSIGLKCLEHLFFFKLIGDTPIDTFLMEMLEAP

Results are given in words; binding and its absence hold for the method and conditions named. Some binding calls cover weakened binding; strength is not graded here.

This assay has as its target Retinoid X receptor α ligand-binding domain (RXRα-LBD), His-tagged, purified (human) (UniProt P19793). Description: crystal structure; RXRα-LBD with Rut and SRC1 peptide; 8% v/v Tacsimate pH 8.0, 20% (w/v) PEG3350, 4°C; 2.0 Å; both purified.

B1: SRC1 peptide (…) (peptide)
peptide: KHKILHRLLQDSS
As to B1, the binding entry was “binds”.
